The text below walks through data of publication PMC7862700.

Protein sequences, listed by entry. Tags and fused reporters are not part of them. Lines headed by an entry give the natural chain unless they say otherwise; changes in a name come on top.
UniProt Q01892: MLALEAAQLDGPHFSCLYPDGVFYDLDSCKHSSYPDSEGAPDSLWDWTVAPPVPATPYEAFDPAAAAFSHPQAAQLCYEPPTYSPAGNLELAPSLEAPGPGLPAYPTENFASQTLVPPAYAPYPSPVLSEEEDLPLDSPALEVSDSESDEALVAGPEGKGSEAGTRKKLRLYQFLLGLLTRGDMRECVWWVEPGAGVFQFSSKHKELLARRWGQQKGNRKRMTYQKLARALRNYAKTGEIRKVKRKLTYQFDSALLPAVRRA
UniProt P41161: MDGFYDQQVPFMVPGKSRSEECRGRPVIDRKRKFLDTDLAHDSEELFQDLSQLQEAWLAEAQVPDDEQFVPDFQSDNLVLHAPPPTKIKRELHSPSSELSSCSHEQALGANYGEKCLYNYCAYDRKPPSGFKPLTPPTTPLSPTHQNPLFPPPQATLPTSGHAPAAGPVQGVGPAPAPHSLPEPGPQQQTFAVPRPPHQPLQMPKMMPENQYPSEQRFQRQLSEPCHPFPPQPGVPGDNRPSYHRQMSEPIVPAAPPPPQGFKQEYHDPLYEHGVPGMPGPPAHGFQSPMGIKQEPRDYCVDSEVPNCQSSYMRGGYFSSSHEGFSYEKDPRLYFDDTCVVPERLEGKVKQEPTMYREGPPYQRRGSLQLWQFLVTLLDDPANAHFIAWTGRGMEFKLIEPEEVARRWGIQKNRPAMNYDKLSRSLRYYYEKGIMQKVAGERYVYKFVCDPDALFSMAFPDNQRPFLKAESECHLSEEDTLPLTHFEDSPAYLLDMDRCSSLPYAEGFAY
UniProt Q99607: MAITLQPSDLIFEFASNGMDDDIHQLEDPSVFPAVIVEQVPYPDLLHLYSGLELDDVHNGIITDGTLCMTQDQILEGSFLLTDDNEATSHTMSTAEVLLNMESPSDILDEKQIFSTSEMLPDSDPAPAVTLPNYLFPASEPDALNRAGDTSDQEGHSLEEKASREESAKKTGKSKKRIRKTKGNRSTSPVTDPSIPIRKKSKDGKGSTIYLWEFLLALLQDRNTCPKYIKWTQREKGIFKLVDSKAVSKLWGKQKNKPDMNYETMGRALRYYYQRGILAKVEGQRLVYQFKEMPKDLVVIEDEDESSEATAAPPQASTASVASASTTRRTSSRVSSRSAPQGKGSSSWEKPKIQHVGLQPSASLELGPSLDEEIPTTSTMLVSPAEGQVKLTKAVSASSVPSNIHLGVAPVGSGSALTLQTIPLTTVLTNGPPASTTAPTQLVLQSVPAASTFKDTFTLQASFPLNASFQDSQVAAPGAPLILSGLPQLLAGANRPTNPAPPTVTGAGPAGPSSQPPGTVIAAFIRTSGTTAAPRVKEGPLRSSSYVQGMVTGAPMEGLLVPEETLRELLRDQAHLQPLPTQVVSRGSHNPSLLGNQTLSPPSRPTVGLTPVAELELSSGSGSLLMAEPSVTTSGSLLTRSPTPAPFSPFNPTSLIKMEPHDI

The list shows a part of the results, in another mix than the full data. At the low end of the ranking the order means little.

Targets include SPIB (UniProt Q01892); ETV5 (UniProt P41161); ELF4 (UniProt Q99607).
What all share (experiment): DAPPL (digital affinity profiling via proximity ligation, sequencing)
Holding throughout (settings): 10 mM Tris-HCl pH 7.5, 50 mM NaCl, 1 mM DTT, 4% glycerol, room temperature, 30 min; GST-TFs on glutathione beads, 16-mer random dsDNA library, 0.1% …; high values mean tight binding; double strand, one strand shown; scale: fold enrichment (6-mer frequency, TF over GST control)

Another assay concerns the target T1, FLI1 (UniProt Q01543).
T1 sequence: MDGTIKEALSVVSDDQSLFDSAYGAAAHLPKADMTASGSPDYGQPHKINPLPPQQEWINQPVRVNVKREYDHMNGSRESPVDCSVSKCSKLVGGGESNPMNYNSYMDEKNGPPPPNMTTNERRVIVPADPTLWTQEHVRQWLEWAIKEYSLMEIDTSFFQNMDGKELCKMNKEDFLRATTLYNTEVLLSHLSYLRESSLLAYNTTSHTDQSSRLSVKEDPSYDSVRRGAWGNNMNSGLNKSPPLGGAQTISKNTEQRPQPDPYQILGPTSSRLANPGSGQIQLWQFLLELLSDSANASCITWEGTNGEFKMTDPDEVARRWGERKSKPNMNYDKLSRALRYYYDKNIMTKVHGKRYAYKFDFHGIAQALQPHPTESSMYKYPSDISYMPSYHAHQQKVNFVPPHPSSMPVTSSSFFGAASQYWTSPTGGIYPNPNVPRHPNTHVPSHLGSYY

The next assay has as its target T2, EHF (UniProt Q9NZC4).
T2 sequence: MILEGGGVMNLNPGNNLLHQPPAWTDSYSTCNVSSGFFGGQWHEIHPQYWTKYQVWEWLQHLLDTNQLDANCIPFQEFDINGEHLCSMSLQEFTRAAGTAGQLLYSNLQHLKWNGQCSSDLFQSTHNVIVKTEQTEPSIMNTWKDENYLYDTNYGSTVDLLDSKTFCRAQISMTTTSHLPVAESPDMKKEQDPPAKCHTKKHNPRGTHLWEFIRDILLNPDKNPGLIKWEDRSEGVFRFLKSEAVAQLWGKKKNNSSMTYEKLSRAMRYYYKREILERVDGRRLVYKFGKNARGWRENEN

The next assay deals with T3, ETV2 (UniProt O00321).
T3 sequence: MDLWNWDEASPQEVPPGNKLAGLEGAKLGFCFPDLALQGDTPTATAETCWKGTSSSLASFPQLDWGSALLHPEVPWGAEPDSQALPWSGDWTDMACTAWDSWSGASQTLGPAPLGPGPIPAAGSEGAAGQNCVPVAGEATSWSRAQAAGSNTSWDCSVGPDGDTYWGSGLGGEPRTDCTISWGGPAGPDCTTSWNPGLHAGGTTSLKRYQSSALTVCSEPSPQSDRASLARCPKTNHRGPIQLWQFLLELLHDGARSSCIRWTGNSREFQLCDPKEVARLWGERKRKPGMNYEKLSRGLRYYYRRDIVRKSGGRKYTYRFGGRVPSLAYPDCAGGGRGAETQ

The next assay deals with T4, ETV3L (UniProt Q6ZN32).
T4 sequence: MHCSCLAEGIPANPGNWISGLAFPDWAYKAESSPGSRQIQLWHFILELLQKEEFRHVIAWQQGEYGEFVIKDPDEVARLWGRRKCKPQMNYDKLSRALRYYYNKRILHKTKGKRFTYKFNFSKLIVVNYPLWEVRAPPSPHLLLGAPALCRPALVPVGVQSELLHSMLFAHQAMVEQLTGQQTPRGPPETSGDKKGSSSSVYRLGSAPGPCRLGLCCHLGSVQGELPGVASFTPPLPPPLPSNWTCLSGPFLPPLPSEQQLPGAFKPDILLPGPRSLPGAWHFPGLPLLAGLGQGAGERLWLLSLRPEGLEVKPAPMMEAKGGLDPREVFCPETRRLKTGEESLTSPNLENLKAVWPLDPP

As to TCGCCA, the binding signal with FLI1 worked out at 0.925; with EHF it was 0.85; with SPIB, 0.953; with ETV5, 0.976; in the assay with ELF4 it was 0.94; in the assay with ETV2, 0.904.

Consider CGGTAA, for which the binding signal with FLI1 amounted to 0.975; with SPIB, 0.927; in the assay with ETV5 it was 0.962; with ELF4 it was 0.949; in the assay with ETV2 it was 0.855; with ETV3L it was 0.969.

Consider GAGTGT, for which the binding signal with FLI1 was 0.545; with EHF, 0.525; with SPIB it was 0.52; with ETV5, 0.508; with ELF4, 0.532; with ETV2 it was 0.447. The sequence further registered a binding signal in the assay with ETV3L of 0.534.

GACACC: the binding signal in the assay with FLI1 stood at 0.839; with EHF it was 0.87; in the assay with SPIB it was 0.864; in the assay with ETV5, 0.904; in the assay with ELF4, 0.908; in the assay with ETV2 it was 0.813.

AGATAC: the binding signal with FLI1 amounted to 0.925; with SPIB, 0.89; with ETV5 it was 0.877; with ELF4, 0.932; with ETV2, 0.981; with ETV3L, 0.987.

As for GGGGCA, the binding signal with FLI1 turned out to be 0.698; in the assay with EHF, 0.685; in the assay with SPIB it was 0.671; with ETV5 it was 0.697; in the assay with ELF4, 0.708; with ETV2, 0.715. In the assay with ETV3L, this sequence came in with a binding signal of 0.718.

On to CGAGCG, for which the binding signal was determined as 0.937 with FLI1; 0.977 with EHF; 0.979 in the assay with SPIB; 0.976 with ETV5; 0.917 with ELF4; 0.945 in the assay with ETV2. Moreover, in the assay with ETV3L, the binding signal was 0.962.

As to GGACCA, the binding signal with FLI1 is 0.766; with EHF, 0.763; with SPIB, 0.755; in the assay with ETV5 it was 0.687; in the assay with ELF4, 0.805; with ETV2, 0.848. Besides, the binding signal with ETV3L came to 0.825.

For AGCACC, the binding signal with FLI1 worked out at 0.904; with EHF it was 0.966; with SPIB, 0.919; with ETV5 it was 0.88; with ELF4 it was 0.889; in the assay with ETV2 it was 0.932.

In the case of GAAGGA, the binding signal amounted to 0.694 with FLI1; 0.788 in the assay with EHF; 0.779 in the assay with SPIB; 0.792 with ETV5; 0.69 with ELF4; 0.726 with ETV2. The sequence also registered a binding signal with ETV3L of 0.701.

Turning to TAGGGA, the binding signal with FLI1 was 0.719; with EHF it was 0.819; with SPIB, 0.795; with ETV5, 0.829; in the assay with ELF4, 0.827; in the assay with ETV2, 0.723. In the assay with ETV3L, this sequence yielded a binding signal of 0.853.

In the case of AGGGCA, the binding signal with FLI1 is 0.783; with EHF it was 0.848; with SPIB, 0.807; in the assay with ETV5, 0.827; with ELF4 it was 0.784; with ETV2, 0.898. The sequence also registered a binding signal in the assay with ETV3L of 0.832.

Consider TCGGTG, for which the binding signal in the assay with FLI1 is 0.514; in the assay with EHF, 0.535; with SPIB, 0.529; with ETV5, 0.6; in the assay with ELF4, 0.521; in the assay with ETV2 it was 0.625. In the assay with ETV3L, the binding signal was found to be 0.568.

Regarding CAACGT, the binding signal came out at 0.856 with FLI1; 0.867 with EHF; 0.91 with SPIB; 0.867 in the assay with ETV5; 0.91 in the assay with ELF4; 0.752 in the assay with ETV2. In the assay with ETV3L, the binding signal amounted to 0.846.

Take AGGGTC: the binding signal came out at 0.822 with FLI1; 0.81 with EHF; 0.901 in the assay with SPIB; 0.862 in the assay with ETV5; 0.825 in the assay with ELF4; 0.839 in the assay with ETV2. In the assay with ETV3L, this sequence came in with a binding signal of 0.895.

Take GTATAG: the binding signal with FLI1 was 0.913; in the assay with EHF, 0.943; with SPIB it was 0.937; with ETV5 it was 0.946; in the assay with ELF4, 0.888; with ETV2, 0.889.

On to TACCGT, for which the binding signal in the assay with FLI1 is 0.644; in the assay with EHF, 0.647; with SPIB it was 0.659; with ETV5, 0.638; with ELF4, 0.684; with ETV2, 0.638. The binding signal with ETV3L amounted to 0.706.

As for TCGGCA, the binding signal with FLI1 was 0.687; with EHF it was 0.718; with SPIB, 0.707; in the assay with ETV5 it was 0.733; in the assay with ELF4, 0.725; in the assay with ETV2 it was 0.784. This sequence came in with a binding signal in the assay with ETV3L of 0.677.

Regarding TGGACG, the binding signal with FLI1 was found to be 0.817; with EHF it was 0.83; with SPIB, 0.838; with ETV5, 0.827; in the assay with ELF4 it was 0.808; with ETV2, 0.824. The sequence further yielded a binding signal with ETV3L of 0.819.

For GGTTGC, the binding signal was determined as 0.935 with FLI1; 0.929 with EHF; 1 in the assay with SPIB; 0.989 with ETV5; 0.912 in the assay with ELF4; 0.867 with ETV2.

GGACTA: the binding signal in the assay with FLI1 was determined as 0.836; in the assay with EHF, 0.822; with SPIB, 0.911; with ETV5, 0.817; with ELF4, 0.869; with ETV2, 0.862. The sequence also registered a binding signal with ETV3L of 0.918.

For GGTGTG, the binding signal with FLI1 was 0.752; with EHF, 0.777; in the assay with SPIB, 0.729; with ETV5, 0.754; in the assay with ELF4 it was 0.719; with ETV2 it was 0.807. The sequence also registered a binding signal in the assay with ETV3L of 0.703.

Take AAGACA: the binding signal with FLI1 turned out to be 0.975; with EHF, 0.984; with SPIB, 1.02; in the assay with ETV5, 0.996; with ELF4 it was 0.919; with ETV2 it was 0.937.

In the case of CAACAG, the binding signal was found to be 0.975 with FLI1; 0.911 with SPIB; 0.924 with ETV5; 0.938 with ELF4; 0.957 with ETV2; 0.887 in the assay with ETV3L.

For TGACAG, the binding signal with FLI1 stood at 0.993; with EHF it was 0.936; with SPIB, 0.981; in the assay with ETV5 it was 0.881; with ELF4 it was 0.982; with ETV2, 0.913.

With TCGGTA, the binding signal was found to be 0.577 with FLI1; 0.597 in the assay with EHF; 0.592 with SPIB; 0.584 with ETV5; 0.628 with ELF4; 0.566 with ETV2. Moreover, in the assay with ETV3L, the binding signal was found to be 0.607.

Consider TCGGGA, for which the binding signal in the assay with FLI1 stood at 0.373; with EHF it was 0.356; with SPIB, 0.444; with ETV5 it was 0.4; with ELF4 it was 0.367; in the assay with ETV2, 0.346. Also, the binding signal with ETV3L is 0.398.

On to AGCGCA, for which the binding signal came out at 0.918 with FLI1; 0.886 with EHF; 0.909 in the assay with SPIB; 0.898 with ETV5; 0.879 with ELF4; 0.875 in the assay with ETV2.

Regarding GGGCTG, the binding signal with FLI1 was 0.876; with EHF, 0.92; with SPIB, 0.877; with ETV5, 0.911; in the assay with ELF4 it was 0.96; with ETV2, 0.957.

As for GTGCAA, the binding signal in the assay with FLI1 came out at 0.913; in the assay with SPIB, 0.958; with ETV5, 0.955; with ELF4, 0.982; with ETV2 it was 0.85; in the assay with ETV3L, 0.909.

For the sequence GACGGT, the binding signal amounted to 0.467 with FLI1; 0.457 in the assay with EHF; 0.461 with SPIB; 0.488 with ETV5; 0.415 in the assay with ELF4; 0.588 with ETV2. In the assay with ETV3L, the binding signal stood at 0.501.
